Measured values as given in paper PMC6287947.
No constants are given. Whether binding was seen depends on the method and setting. For some of these results: Binding calls can cover weak binding; strength is not graded here. For some of these results: Where a sequence is shown, tags or fusion partners need not be part of it. For some of these results: Binding seen in cells or lysates may run through a third protein.

By UniProt entry, the sequences of proteins in these tests, tags left out. Where a name states a change or a piece, a line headed by the entry shows the natural chain unless it says otherwise.
UniProt Q9VYB1: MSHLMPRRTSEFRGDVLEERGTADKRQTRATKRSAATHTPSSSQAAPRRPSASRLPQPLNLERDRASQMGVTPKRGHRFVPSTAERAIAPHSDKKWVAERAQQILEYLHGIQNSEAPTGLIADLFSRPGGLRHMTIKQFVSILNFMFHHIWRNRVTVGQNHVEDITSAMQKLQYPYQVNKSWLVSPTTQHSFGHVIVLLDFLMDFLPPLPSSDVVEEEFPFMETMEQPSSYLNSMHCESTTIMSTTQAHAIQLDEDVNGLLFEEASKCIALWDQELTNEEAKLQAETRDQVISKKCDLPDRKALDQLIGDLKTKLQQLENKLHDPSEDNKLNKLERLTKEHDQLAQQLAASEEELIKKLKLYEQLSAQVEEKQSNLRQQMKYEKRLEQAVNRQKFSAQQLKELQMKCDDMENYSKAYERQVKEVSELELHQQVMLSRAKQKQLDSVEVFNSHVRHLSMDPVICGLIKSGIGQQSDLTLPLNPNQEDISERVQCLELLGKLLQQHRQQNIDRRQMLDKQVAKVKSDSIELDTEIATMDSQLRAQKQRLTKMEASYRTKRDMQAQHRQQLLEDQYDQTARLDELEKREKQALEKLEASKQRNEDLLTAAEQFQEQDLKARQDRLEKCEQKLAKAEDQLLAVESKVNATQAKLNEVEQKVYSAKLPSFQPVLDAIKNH
UniProt Q9VU15: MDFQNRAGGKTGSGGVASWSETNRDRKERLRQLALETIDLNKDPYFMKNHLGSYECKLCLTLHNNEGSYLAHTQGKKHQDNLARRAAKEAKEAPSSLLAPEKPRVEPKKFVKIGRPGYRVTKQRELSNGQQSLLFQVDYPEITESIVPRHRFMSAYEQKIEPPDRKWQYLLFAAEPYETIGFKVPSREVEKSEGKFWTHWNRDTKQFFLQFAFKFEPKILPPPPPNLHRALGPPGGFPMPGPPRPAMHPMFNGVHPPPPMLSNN

Assays:
[1] = target: T1, GST-Ver (Drosophila (D. melanogaster)) (UniProt Q9VTZ2); assay: pull-down; bacterially expressed purified proteins; GST-Mitch (60 nM), GST-Nuf2 (50 nM), GST-Ndc80 (40 nM) or GST (200 nM) on glutathione beads incubated at 4°C for 2 hr with 6His-Sf3A2 (20 nM) or 6His-Prp31 (20 nM) in NETN buffer (20 mM Tris-HCl, pH 8, 100 mM NaCl, 1 mM EDTA, 0.5% NP-40); both purified
T1 sequence: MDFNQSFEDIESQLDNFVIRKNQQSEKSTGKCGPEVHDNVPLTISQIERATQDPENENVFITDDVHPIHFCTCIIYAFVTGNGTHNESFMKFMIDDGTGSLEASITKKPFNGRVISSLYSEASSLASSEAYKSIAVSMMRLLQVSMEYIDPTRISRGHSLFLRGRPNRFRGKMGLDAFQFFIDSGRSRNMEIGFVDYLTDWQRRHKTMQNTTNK

[2] = target: T2, GST-Mitch (Drosophila (D. melanogaster)) (UniProt Q9V3V7); assay: as above
T2 sequence: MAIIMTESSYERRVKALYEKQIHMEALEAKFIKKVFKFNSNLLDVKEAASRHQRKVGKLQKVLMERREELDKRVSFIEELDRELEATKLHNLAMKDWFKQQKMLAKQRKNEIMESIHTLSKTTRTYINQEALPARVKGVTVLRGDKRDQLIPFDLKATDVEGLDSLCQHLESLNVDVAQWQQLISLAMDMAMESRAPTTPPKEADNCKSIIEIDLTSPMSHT

[3] = target: T3, GST-HOAP (Drosophila (D. melanogaster)) (UniProt Q95RV2); assay: as above
T3 sequence: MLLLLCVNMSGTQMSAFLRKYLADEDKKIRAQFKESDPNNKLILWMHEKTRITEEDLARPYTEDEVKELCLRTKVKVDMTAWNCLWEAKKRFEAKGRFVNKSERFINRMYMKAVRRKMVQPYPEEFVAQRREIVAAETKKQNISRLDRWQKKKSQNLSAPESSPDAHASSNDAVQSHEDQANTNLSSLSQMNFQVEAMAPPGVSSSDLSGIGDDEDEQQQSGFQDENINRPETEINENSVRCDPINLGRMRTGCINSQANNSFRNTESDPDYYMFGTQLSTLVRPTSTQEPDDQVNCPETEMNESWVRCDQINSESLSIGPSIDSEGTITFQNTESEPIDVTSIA

[4] = target: GST-Ndc80 (Drosophila (D. melanogaster)) (UniProt Q9VYB1); assay: as above
[5] = target: T4, Prp31 (endogenous, S2 cells) (D. melanogaster (endogenous in S2)) (UniProt Q9VUM1); assay: co-IP; S2 cell extracts (lysis buffer with 1% Triton X-100) incubated for 3 hr at 25°C with protein G sepharose beads conjugated to antibodies; endogenous proteins, detected by Western blotting
T4 sequence: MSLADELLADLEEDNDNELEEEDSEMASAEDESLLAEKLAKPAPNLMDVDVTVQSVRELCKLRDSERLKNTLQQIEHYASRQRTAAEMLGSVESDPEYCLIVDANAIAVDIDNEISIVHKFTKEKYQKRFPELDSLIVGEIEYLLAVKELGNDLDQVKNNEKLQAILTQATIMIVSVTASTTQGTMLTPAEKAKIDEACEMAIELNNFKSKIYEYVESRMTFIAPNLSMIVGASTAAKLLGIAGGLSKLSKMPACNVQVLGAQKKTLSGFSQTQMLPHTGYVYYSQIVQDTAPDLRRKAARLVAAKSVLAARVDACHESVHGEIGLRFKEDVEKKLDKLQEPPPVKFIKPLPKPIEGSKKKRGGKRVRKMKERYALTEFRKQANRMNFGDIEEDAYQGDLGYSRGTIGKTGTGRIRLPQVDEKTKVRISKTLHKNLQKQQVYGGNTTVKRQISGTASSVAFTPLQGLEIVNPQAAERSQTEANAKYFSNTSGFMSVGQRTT

[6] = target: Ndc80 (endogenous, S2 cells) (D. melanogaster (endogenous in S2)) (UniProt Q9VYB1); assay: as above
[7] = target: Sf3A2 (endogenous, S2 cells) (D. melanogaster (endogenous in S2)) (UniProt Q9VU15); assay: as above
[8] = target: T2, GST-Mitch (Drosophila (D. melanogaster)); assay: pull-down; lysates from S2 cells expressing HA-tagged SFs incubated at 4°C for 2 hr with GST-fusion proteins or GST alone; Western blotting with anti-HA; only the target purified
[9] = target: GST-Nuf2 (Drosophila (D. melanogaster)); assay: pull-down; bacterially expressed purified proteins; GST-Mitch (60 nM), GST-Nuf2 (50 nM), GST-Ndc80 (40 nM) or GST (200 nM) on glutathione beads incubated at 4°C for 2 hr with 6His-Sf3A2 (20 nM) or 6His-Prp31 (20 nM) in NETN buffer (20 mM Tris-HCl, pH 8, 100 mM NaCl, 1 mM EDTA, 0.5% NP-40); both purified
[10] = target: GST-Nuf2 (Drosophila (D. melanogaster)); assay: pull-down; lysates from S2 cells expressing HA-tagged SFs incubated at 4°C for 2 hr with GST-fusion proteins or GST alone; Western blotting with anti-HA; only the target purified
[11] = target: GST-Ndc80 (Drosophila (D. melanogaster)) (UniProt Q9VYB1); assay: as above
[12] = target: Nuf2 (endogenous, S2 cells) (D. melanogaster (endogenous in S2)); assay: co-IP; S2 cell extracts (lysis buffer with 1% Triton X-100) incubated for 3 hr at 25°C with protein G sepharose beads conjugated to antibodies; endogenous proteins, detected by Western blotting

6His-Sf3A2 (from UniProt Q9VU15)
binding [1]: no binding | binding [2]: binds | binding [3]: no binding | binding [4]: binds

Sf3A2 (endogenous, S2 cells) (from UniProt Q9VU15)
binding [5]: binds | binding [6]: binds

Ndc80 (endogenous, S2 cells) (from UniProt Q9VYB1)
binding [5]: binds | binding [7]: binds

3HA-Sf3A2 (Drosophila (D. melanogaster))
binding [8]: binds

B1: 6His-Prp31 (protein, UniProt Q9VUM1 1-501)
chain: MSLADELLADLEEDNDNELEEEDSEMASAEDESLLAEKLAKPAPNLMDVDVTVQSVRELCKLRDSERLKNTLQQIEHYASRQRTAAEMLGSVESDPEYCLIVDANAIAVDIDNEISIVHKFTKEKYQKRFPELDSLIVGEIEYLLAVKELGNDLDQVKNNEKLQAILTQATIMIVSVTASTTQGTMLTPAEKAKIDEACEMAIELNNFKSKIYEYVESRMTFIAPNLSMIVGASTAAKLLGIAGGLSKLSKMPACNVQVLGAQKKTLSGFSQTQMLPHTGYVYYSQIVQDTAPDLRRKAARLVAAKSVLAARVDACHESVHGEIGLRFKEDVEKKLDKLQEPPPVKFIKPLPKPIEGSKKKRGGKRVRKMKERYALTEFRKQANRMNFGDIEEDAYQGDLGYSRGTIGKTGTGRIRLPQVDEKTKVRISKTLHKNLQKQQVYGGNTTVKRQISGTASSVAFTPLQGLEIVNPQAAERSQTEANAKYFSNTSGFMSVGQRTT
binding [9]: binds | binding [4]: binds

B2: 3HA-Prp31 (protein, UniProt Q9VUM1 1-501)
chain: MSLADELLADLEEDNDNELEEEDSEMASAEDESLLAEKLAKPAPNLMDVDVTVQSVRELCKLRDSERLKNTLQQIEHYASRQRTAAEMLGSVESDPEYCLIVDANAIAVDIDNEISIVHKFTKEKYQKRFPELDSLIVGEIEYLLAVKELGNDLDQVKNNEKLQAILTQATIMIVSVTASTTQGTMLTPAEKAKIDEACEMAIELNNFKSKIYEYVESRMTFIAPNLSMIVGASTAAKLLGIAGGLSKLSKMPACNVQVLGAQKKTLSGFSQTQMLPHTGYVYYSQIVQDTAPDLRRKAARLVAAKSVLAARVDACHESVHGEIGLRFKEDVEKKLDKLQEPPPVKFIKPLPKPIEGSKKKRGGKRVRKMKERYALTEFRKQANRMNFGDIEEDAYQGDLGYSRGTIGKTGTGRIRLPQVDEKTKVRISKTLHKNLQKQQVYGGNTTVKRQISGTASSVAFTPLQGLEIVNPQAAERSQTEANAKYFSNTSGFMSVGQRTT
binding [10]: binds | binding [11]: binds

B3: Prp31 (endogenous, S2 cells) (protein, UniProt Q9VUM1 1-501)
chain: MSLADELLADLEEDNDNELEEEDSEMASAEDESLLAEKLAKPAPNLMDVDVTVQSVRELCKLRDSERLKNTLQQIEHYASRQRTAAEMLGSVESDPEYCLIVDANAIAVDIDNEISIVHKFTKEKYQKRFPELDSLIVGEIEYLLAVKELGNDLDQVKNNEKLQAILTQATIMIVSVTASTTQGTMLTPAEKAKIDEACEMAIELNNFKSKIYEYVESRMTFIAPNLSMIVGASTAAKLLGIAGGLSKLSKMPACNVQVLGAQKKTLSGFSQTQMLPHTGYVYYSQIVQDTAPDLRRKAARLVAAKSVLAARVDACHESVHGEIGLRFKEDVEKKLDKLQEPPPVKFIKPLPKPIEGSKKKRGGKRVRKMKERYALTEFRKQANRMNFGDIEEDAYQGDLGYSRGTIGKTGTGRIRLPQVDEKTKVRISKTLHKNLQKQQVYGGNTTVKRQISGTASSVAFTPLQGLEIVNPQAAERSQTEANAKYFSNTSGFMSVGQRTT
binding [12]: binds | binding [6]: binds | binding [7]: binds
